Measured values from patent publication US20050261265A1, “MODULATING CELLULAR SENESCENCE BY AMPHIPHYSIN-1” (priority 2000, published 2005).
These are yes or no findings as the source states them, for the method shown. Binding seen in cells or lysates may run through a third protein. Some binding calls cover weakened binding; strength is not graded here.

By UniProt entry, the sequences of proteins in these tests, tags left out. Where a name states a change or a piece, a line headed by the entry shows the natural chain unless it says otherwise.
UniProt Q03135: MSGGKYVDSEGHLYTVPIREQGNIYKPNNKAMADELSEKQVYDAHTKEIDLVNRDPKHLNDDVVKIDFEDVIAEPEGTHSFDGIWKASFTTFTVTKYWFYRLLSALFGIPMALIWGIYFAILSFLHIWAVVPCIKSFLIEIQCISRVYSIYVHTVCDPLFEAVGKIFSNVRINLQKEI

Assays:
[1] = target: epidermal growth factor receptor (EGFR) (human) (UniProt P00533); assay: co-immunoprecipitation from human fibroblast lysates, Western blot (FIG. 15 legend)
[2] = target: epidermal growth factor receptor (EGFR) (human) (UniProt P00533); assay: co-immunoprecipitation from old human fibroblast lysates (anti-EGFR or anti-caveolin-1 antibody, protein A-Sepharose), Western blot
[3] = target: epidermal growth factor receptor (EGFR) (human) (UniProt P00533); assay: co-immunoprecipitation from human fibroblast lysates, Western blot

Measured: binding

caveolin-1 protein (from UniProt Q03135 2-178)
binds: [1] | [2] | [3]
